Drawing on article PMC13189808, this text covers binding for 2 molecules.

By UniProt entry, the sequences of proteins in these tests, tags left out. Residues count along the entry.
UniProt Q13443, residues 29-819: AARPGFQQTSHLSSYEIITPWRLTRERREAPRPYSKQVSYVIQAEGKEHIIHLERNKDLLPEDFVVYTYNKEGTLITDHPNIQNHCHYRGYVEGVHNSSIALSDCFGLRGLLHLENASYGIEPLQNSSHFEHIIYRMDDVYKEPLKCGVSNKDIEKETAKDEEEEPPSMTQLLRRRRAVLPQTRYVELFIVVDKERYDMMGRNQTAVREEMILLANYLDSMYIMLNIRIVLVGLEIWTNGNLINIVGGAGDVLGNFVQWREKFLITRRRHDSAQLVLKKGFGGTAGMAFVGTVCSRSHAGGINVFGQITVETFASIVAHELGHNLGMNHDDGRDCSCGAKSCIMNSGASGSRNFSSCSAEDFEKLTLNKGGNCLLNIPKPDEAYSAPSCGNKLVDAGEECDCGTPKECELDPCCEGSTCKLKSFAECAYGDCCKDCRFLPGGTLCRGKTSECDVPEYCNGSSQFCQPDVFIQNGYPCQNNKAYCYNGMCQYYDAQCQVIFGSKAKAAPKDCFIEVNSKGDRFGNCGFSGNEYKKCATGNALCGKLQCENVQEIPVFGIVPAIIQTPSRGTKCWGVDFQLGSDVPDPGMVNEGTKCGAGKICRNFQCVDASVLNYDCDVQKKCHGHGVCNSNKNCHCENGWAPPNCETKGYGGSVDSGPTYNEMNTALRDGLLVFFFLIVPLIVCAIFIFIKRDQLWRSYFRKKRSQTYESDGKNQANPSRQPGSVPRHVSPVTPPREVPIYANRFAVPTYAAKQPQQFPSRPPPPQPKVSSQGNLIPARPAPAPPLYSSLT
UniProt P26599: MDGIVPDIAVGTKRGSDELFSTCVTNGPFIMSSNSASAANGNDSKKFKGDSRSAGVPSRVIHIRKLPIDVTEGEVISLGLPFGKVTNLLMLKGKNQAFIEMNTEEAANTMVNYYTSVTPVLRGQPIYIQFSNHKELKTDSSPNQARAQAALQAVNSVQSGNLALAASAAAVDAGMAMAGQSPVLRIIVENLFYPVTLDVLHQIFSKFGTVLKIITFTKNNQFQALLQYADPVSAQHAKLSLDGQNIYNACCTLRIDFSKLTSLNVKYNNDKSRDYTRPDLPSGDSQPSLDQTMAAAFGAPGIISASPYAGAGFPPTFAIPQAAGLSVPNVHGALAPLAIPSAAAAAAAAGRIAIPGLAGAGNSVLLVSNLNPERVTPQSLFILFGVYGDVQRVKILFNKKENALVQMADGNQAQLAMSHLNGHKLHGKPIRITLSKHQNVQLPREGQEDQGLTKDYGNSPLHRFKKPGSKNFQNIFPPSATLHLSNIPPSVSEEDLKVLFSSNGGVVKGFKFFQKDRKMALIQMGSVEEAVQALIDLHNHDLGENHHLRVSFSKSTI

The target in assay [1] is endogenous human ADAM9 (human) (UniProt Q13443). The experiment in a line: affinity purification with mass spectrometry; similar experiments with endogenous human ADAM9; proteins overlapping with the Adam13 hits.
In assay [2] the target is Adam13 (Xenopus adam13.L), full-length (Xenopus laevis). The experiment in a line: affinity purification with mass spectrometry + proximity labelling; immunoprecipitation of full-length Adam13 and BioID (BioID2 inserted in the Adam13 cytoplasmic domain, HEK293T cells, biotin added, streptavidin beads); hits had to be in both sample types and absent from the ΔCyto controls; at least 2 unique peptides, 95% confidence.

These are yes or no findings as the source states them, for the method shown. Binding seen in cells or lysates may run through a third protein. These calls come from enrichment with a bait or labelling near it, and not all partners need be listed.

With PTBP1 (from UniProt P26599 1-557), the binding entry in assay [1] is recorded as “binds”.

B1: Arid4A (protein, UniProt P29374 1-1257)
chain: MKAADEPAYLTVGTDVSAKYRGAFCEAKIKTVKRLVKVKVLLKQDNTTQLVQDDQVKGPLRVGAIVETRTSDGSFQEAIISKLTDASWYTVVFDDGDERTLRRTSLCLKGERHFAESETLDQLPLTNPEHFGTPVIAKKTNRGRRSSLPVTEDEKEEESSEEEDEDKRRLNDELLGKVVSVVSATERTEWYPALVISPSCNDDITVKKDQCLVRSFIDSKFYSIARKDIKEVDILNLPESELSTKPGLQKASIFLKTRVVPDNWKMDISEILESSSSDDEDGPAEENDEEKEKEAKKTEEEVPEEELDPEERDNFLQQLYKFMEDRGTPINKPPVLGYKDLNLFKLFRLVYHQGGCDNIDSGAVWKQIYMDLGIPILNSAASYNVKTAYRKYLYGFEEYCRSANIQFRTVHHHEPKVKEEKKDLEESMEEALKLDQEMPLTEVKSEPEENIDSNSESEREEIELKSPRGRRRIARDVNSIKKEIEEEKTEDKLKDNDTENKDVDDDYETAEKKENELLLGRKNTPKQKEKKIKKQEDSDKDSDEEEEKSQEREETESKCDSEGEEDEEDMEPCLTGTKVKVKYGRGKTQKIYEASIKSTEIDDGEVLYLVHYYGWNVRYDEWVKADRIIWPLDKGGPKKKQKKKAKNKEDSEKDEKRDEERQKSKRGRPPLKSTLSSNMPYGLSKTANSEGKSDSCSSDSETEDALEKNLINEELSLKDELEKNENLNDDKLDEENPKISAHILKENDRTQMQPLETLKLEVGENEQIVQIFGNKMEKTEEVKKEAEKSPKGKGRRSKTKDLSLEIIKISSFGQNEAGSEPHIEAHSLELSSLDNKNFSSATEDEIDQCVKEKKLKRKILGQSSPEKKIRIENGMEMTNTVSQERTSDCIGSEGMKNLNFEQHFERENEGMPSLIAESNQCIQQLTSERFDSPAEETVNIPLKEDEDAMPLIGPETLVCHEVDLDDLDEKDKTSIEDVAVESSESNSLVSIPPALPPVVQHNFSVASPLTLSQDESRSVKSESDITIEVDSIAEESQEGLCERESANGFETNVASGTCSIIVQERESREKGQKRPSDGNSGLMAKKQKRTPKRTSAAAKNEKNGTGQSSDSEDLPVLDNSSKCTPVKHLNVSKPQKLARSPARISPHIKDGEKDKHREKHPNSSPRTYKWSFQLNELDNMNSTERISFLQEKLQEIRKYYMSLKSEVATIDRRRKRLKKKDREVSHAGASMSSASSDTGMSPSSSSPPQNVLAVECR
On to B1, for which, in assay [2], the binding result was “binds”.
